In this test the target is T1, TurboID-ALN (UniProt Q99M08).
T1 sequence: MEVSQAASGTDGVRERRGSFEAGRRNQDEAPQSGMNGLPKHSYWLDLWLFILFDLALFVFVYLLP
As to the kind of experiment: proximity labelling; TurboID on the N terminus of ALN in differentiated beige adipocytes, 50 μM biotin for 30 min, streptavidin beads, TMT-based quantitative proteomics; basal and NE-treated cells.

The results in this text go back to article PMC12137002.

Results are given in words; binding and its absence hold for the method and conditions named. Binding seen in cells or lysates may run through a third protein. These calls come from enrichment with a bait or labelling near it, and not all partners need be listed.

For “SERCA2b (from UniProt O55143-1 1-1044) (enzyme)”, the binding result is on record as “binds”.
